Laboratory results taken from doi:10.1101/2024.03.08.584184.
The exact form of at least one protein or probe is not confirmed.

Amino acid sequences for entries named in this document (tags omitted).
UniProt Q8N884, whole entry: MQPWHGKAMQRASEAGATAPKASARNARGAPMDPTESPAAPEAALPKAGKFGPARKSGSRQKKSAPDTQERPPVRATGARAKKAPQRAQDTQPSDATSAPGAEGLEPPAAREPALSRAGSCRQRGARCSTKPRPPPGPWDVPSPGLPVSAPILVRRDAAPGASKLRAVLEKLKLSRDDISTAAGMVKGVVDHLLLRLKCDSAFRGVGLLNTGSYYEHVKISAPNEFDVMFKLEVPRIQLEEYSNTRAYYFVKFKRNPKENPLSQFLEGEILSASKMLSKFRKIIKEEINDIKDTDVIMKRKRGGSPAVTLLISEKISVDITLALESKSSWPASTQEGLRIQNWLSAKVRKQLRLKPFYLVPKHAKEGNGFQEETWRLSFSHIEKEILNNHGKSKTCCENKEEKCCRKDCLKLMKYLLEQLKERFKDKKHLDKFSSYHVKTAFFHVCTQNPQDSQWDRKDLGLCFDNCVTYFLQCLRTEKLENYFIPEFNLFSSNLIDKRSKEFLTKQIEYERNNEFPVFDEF

Target: cGAS (Homo sapiens) (UniProt Q8N884)
Assay: EMSA
Conditions: binds at lower cGAS concentration than 30 bp DNA

**Q.** Does “TTAATAACATCGAGCATTAGGGAGCCGCTAGTTCGATTGTATTAATAACAAGGACTGTCCCTATTAACCTTGCCGGATCTGAAGCGACACCGTGTTACTTGATGCCACAAGAGTAACACGAACTTAATTATCGCCGTCGGGAGCGTTGCCTGTCGTCTTCTAGCCAATGTATACCATCAAGGTGAACCGCTTAGTTAGGA (double strand) [200bp Oligo (same sequence as Scramble 1)]” bind?
**A.** Result: binds
